Laboratory results from publication PMC12374808.

The chains behind the UniProt entries cited, without tags or fusion partners. Where a name states a change or a piece, a line headed by the entry shows the natural chain unless it says otherwise.
UniProt P16070: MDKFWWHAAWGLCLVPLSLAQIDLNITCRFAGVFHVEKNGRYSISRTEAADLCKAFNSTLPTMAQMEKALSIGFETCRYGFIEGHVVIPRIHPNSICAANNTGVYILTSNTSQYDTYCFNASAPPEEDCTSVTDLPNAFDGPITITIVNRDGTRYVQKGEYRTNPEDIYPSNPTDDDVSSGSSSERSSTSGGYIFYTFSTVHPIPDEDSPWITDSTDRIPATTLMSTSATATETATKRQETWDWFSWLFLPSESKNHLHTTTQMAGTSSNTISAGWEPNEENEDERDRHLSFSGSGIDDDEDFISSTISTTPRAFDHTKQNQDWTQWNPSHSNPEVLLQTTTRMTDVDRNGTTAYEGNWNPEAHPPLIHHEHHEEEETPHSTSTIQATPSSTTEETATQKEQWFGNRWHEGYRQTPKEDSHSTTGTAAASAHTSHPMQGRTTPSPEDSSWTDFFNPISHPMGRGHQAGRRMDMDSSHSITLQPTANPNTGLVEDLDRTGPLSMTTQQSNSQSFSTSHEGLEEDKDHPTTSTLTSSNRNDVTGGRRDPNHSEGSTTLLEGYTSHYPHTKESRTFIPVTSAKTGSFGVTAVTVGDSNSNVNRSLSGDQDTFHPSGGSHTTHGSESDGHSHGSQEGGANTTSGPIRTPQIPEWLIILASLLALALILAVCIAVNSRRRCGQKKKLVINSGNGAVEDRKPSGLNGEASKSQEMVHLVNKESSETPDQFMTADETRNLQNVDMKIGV
UniProt P05412: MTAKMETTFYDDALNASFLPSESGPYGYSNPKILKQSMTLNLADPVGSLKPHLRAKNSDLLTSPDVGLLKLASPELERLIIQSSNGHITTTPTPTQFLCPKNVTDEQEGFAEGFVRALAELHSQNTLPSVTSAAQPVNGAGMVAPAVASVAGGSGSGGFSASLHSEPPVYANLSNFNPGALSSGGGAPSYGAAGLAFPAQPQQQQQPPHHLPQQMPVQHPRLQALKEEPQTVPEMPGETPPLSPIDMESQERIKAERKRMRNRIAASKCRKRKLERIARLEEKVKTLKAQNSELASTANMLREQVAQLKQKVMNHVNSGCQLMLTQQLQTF

Target: cleaved intracellular domain (ICD) of CD44 (CD44-ICD) (human (endogenous in A549)) (UniProt P16070)
Assay: co-IP; nuclear fraction of A549 cells treated with 200 ng/ml rhTSG6 for 2 hours; immunoprecipitation, then immunoblot with anti-CD44, anti-c-Fos and anti-c-Jun

binding: binds
Substance: c-Jun (from UniProt P05412 1-331)

No constants are given. Whether binding was seen depends on the method and setting. Binding seen in cells or lysates may run through a third protein. Binding can be weak; no strength is given.
